Drawing on paper PMC5538744, this text covers binding for two substances.

Results are given in words; binding and its absence hold for the method and conditions named. Where a sequence is shown, tags or fusion partners need not be part of it.

The target of this assay is T1, SGS3 fused to the GAL4 DNA binding domain (pGBKT7) (Arabidopsis thaliana (AtSGS3)) (UniProt Q9LDX1).
T1 sequence: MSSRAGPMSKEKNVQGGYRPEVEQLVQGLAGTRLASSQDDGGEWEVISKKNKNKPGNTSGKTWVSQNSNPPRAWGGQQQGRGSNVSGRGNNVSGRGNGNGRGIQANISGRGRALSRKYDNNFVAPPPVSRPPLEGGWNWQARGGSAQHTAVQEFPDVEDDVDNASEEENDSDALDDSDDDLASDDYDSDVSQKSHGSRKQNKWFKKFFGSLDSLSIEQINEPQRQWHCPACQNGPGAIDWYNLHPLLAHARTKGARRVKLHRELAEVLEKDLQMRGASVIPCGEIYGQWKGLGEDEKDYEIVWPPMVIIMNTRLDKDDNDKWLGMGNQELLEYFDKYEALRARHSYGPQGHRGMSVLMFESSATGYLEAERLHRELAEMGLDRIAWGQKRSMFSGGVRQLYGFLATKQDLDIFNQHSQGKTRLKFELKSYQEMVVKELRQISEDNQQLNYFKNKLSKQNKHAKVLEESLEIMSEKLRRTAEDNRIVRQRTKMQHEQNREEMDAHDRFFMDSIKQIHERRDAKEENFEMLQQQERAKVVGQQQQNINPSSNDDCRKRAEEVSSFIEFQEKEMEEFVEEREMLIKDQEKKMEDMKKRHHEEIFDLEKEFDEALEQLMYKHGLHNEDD
In words: two-hybrid; GAL4 system, SGS3 in pGBKT7 and CPs in pGADT7, yeast strain AH109, 30°C, media lacking Trp, Leu, His and Ade.

Regarding “CP^RA fused to the GAL4 activation domain (pGADT7) (Cucumber mosaic virus (Fny strain))”, the binding result is “no binding”. Take “CP^WT fused to the GAL4 activation domain (pGADT7) (Cucumber mosaic virus (Fny strain))”: the binding result is recorded as “no binding”.
